# Protein sequences can lack the tags named with them. The exact form of at least one protein or probe is not confirmed.
# Experiments:
# [1] = system: T1, AraQ (Bifidobacterium breve UCC2003); test: EMSA; conditions: 150 nM protein, EMSA: binding buffer stock 80 mM Tris-HCl pH 8.0, 20 mM MgCl2, 2 mM DTT, 4 mM EDTA, 400 mM KCl, 40% glycerol (final dilution not stated), poly(dI-dC) 0.05 ug/ul, recombinant protein, protein details: C-terminal His10, probe letters rebuilt from the primers and the genome
# T1 sequence (looked up, limits assumed): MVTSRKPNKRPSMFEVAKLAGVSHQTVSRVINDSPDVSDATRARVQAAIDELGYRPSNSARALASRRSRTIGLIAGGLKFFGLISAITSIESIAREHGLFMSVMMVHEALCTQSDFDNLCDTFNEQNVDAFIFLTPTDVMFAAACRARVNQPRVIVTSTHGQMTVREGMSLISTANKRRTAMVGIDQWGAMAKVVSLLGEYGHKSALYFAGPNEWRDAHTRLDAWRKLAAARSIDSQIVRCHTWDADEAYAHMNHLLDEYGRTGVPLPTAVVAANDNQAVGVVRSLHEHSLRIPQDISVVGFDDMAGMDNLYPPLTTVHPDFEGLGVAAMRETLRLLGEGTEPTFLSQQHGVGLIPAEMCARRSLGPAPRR
# [2] = system: T2, MalR1 (Bifidobacterium breve UCC2003); test: EMSA; conditions: 150 nM protein, EMSA: binding buffer stock 80 mM Tris-HCl pH 8.0, 20 mM MgCl2, 2 mM DTT, 4 mM EDTA, 400 mM KCl, 40% glycerol (final dilution not stated), poly(dI-dC) 0.05 ug/ul, recombinant protein, residues 1-338, protein details: C-terminal His10, probe letters rebuilt from the primers and the genome
# T2 sequence (looked up): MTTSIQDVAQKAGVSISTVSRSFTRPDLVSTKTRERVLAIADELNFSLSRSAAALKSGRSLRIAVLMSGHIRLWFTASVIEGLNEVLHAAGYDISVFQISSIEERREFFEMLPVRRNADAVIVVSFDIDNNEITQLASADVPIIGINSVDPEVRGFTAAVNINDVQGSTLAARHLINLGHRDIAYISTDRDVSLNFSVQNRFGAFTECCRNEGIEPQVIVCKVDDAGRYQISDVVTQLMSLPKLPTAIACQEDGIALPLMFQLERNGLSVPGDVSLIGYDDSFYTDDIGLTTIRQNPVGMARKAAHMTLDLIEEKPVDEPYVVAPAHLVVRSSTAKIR
# [3] = label: 5' IRD700 (both strands)
# [4] = 10 mM effectors gave no consistent change, label: 5' IRD700
sequence,measurement,setting,value
GCAAGGCGTTTGGCGAGCGAGCTGAATCGTCGTACGGCCATATGAGTCCTTTCTCTCATCCTTGAGCATTGACCGCACGAACCATGAAGGGGAACACCCCCTATCGCACGGTCAGACCGTTGACAACGTTTGCAACACTTTCAGCACCACTCCTGCAGAAACGGCATGCAGCACAGTTGACAGACTGCATACGTTCGCAACACTATGTCCCAATCAGCATACCACACCAAGCAACACTTCCCCCAGCTTCGCGCTAACGTTTGCAGTATATGATACAAATGATTACACATCGTGGATGGCGCAACCCGTTAGGGGATTACGTGGCATAGCCGATACCACGAATTGCACGAGGAGGAACATGGGCAAGGCAGACATCTACC (double strand) [malR3/apuB intergenic region],binding signal,[1]; [3],< 15 % bound
same,binding signal,[2]; [3],< 15 % bound
GGTTGCCACGAGAATCCAGAATCTGACGTGCGTACACGCTTTCAATTGCTGCCACAACTACTCCTTAAAACGGTTGTGTATCTTGAATGACATTCATAAGAGTAGTGCGATTTGTGGACGTTGTGAACAACACGCCCAAAATTTGATGTGAGCGCTCACAATGTCGGTGTGCCGCGTGATTGCAGTCAACTTTGGAGGAAAACGCTTAGGCGCTGATTACATCATTGAGATAGTCGATTTCGCTATCGGACAATTCAAGAGTGACCGCTTTGAACGAGTCCTGAATCTCCTGTGGGTTTCTAGCGGAGGGAATCGTAAACAGATTGCCATATTGTGCAAGCTCCCAAGCAAGCGTGACACGCTGGTAGGAGCAGCCGTGATTGTCGGCGACTTCCTTG (double strand) [eno promoter],binding result,[1]; label: 5' IRD700,binds
same,binding result,[2]; label: 5' IRD700,binds
GGCTCTTGCGAACGAATGTAATCTTCCACCACAGCGCGCAGTACCAGCATGCGACGTGATTGCGTCATGCGCGCCTCCTTATATGTACATCTGCCGTATGCAATCTGCTCTCATTGTATTAGCACTCATTGGTTTCGAGTGCTAATGCGTTCGTTTGCGGCGAAGTGATGTGAATTGTGAACGCTAACAGAACACAAACTACCAAAACACGCCAAAATTGCACCATAACGTCGCAAACCATCGCTAGCATGGTAAGCGCAATGTGAGGGCGTCAAGCGCCCGGCACAAGCCGGATACGCGGCCCGACCAATTGGAAGGAAAGTAATCCATGACCGAATTCAAGGAGACCGAGC (double strand) [tkt-tal promoter],binding result,[1]; label: 5' IRD700,binds
same,binding result,[2]; label: 5' IRD700,binds
GCCGTTGTATTCGTGTGTCATCGGATATTCGCCGTCTTGGGTGAGAATGGTCACGGATTTGGCAAGTGGACGCAGCACACGGATTGTGGCGGTATCGGCATGCTTGCCAATGCCGAGATGCCCGCCAAGAACTCCGTGGGGGTTGTAGAATTCAGCATTGCTCACCGCGTCGAGGTCACTTTGGGCAACAGGCACGGTGACGGTATCTTCCTTGATCTTCGTTTCATTAGCCATGCCCCAAAGTCTACGTGCGTTGGTGTCGGAAACGCTACATTGGCGCGTCGAAAATGGCGAATTTATGCCGCTTAGAGTGTTGTCGCTTGATTGTGAGCGCTCTCATTGTCCCAGTCCAGACCATATGGCACAATTATTCGAGTTTTTGTGAGTAATCCGTCAGTTCTCGGAGGATACATGTCTTATCAAGTCGGCGATATGGTCGTCTACCCACGTCATGGTGCAGCAAAAGTGGAGGCCATCACCGAGCGGACGGTTAAGGGCGTGACGCGCGAATATCTGCAGTTGTCCGTACTTTCCTCCGACGGTCTGGTCATCAATGTGCC (double strand) [carD promoter],binding result,[1]; [3],binds
same,binding result,[2]; [3],binds
CGCCATGATGTCTCCTTTCGCTGTGTGGTGGGCGGTGTCAGATACTGTAGCCGTGCTGGCGCCGCCGCAATCGCTGCGACGTACGCCCATGCACATTAATAGCATATATGTATGCGCTTACATTCTTTTGTACCACGATGTGCGCGTTGTTAGCGGTCACGGTTTGATTGTGTTTGCAATGGTTTACCAATGTTCTGTATTGTGCGCATGTGATGTGACGCGCAATCTGCAGGCGGCGGTTGACGGTGTGCAATGTAAGCGCTATCATTTTGTTGTGTCAATCAATGCATGGTTGATGCAGCCGGCATCCGATCCGGCAGGGCGACCGCAAGGTCGTACACGGATATGTGCATGGAGGCACGTATCACATGAGC (double strand) [malR5/malE2 intergenic region],binding signal,[1]; label: 5' IRD700,< 15 % bound
same,binding signal,[2]; label: 5' IRD700,< 15 % bound
CGGTTCCTACGCCAAGTAATCGCTTGACGGCTCGCAGCACTTGGCCGGCGCGGACCACTCCTCTGCACTGGCCAACCCAACCTATAACTGAATAACCAACAATCAAATATGAGGGGTCCGTAAGGTACGCCAGCTGCGGGCGGATGATGTGAAGCCGTTGCATCCGCTCGCAGCCCCTCACCTATCGACGGTTTCAACCTTCTTTGTTTCTCCTCCTTCATTGCCGGCAGAGCTCGGGCAACGTGCATGCGGTGTCCGGGCTTTGAACGGGTTTAAGCGAAGACAAACAAACAACAAGCCGGGCATCGCGGCCCGGAGCAACGGTTTCCATCATTTACAGTGAGAGGCGGTAGGGTGCGATGACAGCAGCAGCACTT (double strand) [agl4/malE1 intergenic region],binding result,[1]; label: 5' IRD700,binds
same,binding result,[2]; label: 5' IRD700,binds
GATCGACATACAGCATGCCGTTCGGTTGAAAATACGACATAAGCACGATGCCTCCTTGCAATGCATTAAACCACTGCGGCCAGCTACGGCCATCAGACGAATTTAATGTTGAGGTTCATTCCGCTTCACCAAATTCGTATTATCATCATATCGTCATAACGTATTATCGTCATATCGGCGTGTCGCTATGGCGAACCGCAATCCGTATGCTCCTTTTATCAGCCAGAATCAGATTCGAATTCAGTCTCAACAAGACTGTTAACCACCGACCAATGAAGCATCGAGGCCGGCTCAATCGGCAAATGCAACAGTAAGAACCTAGATTGCCCTGAAAGTCACGCCGTTGCGGGCGGCCTTGCGTTCGGCTTTGCGCTCCTCGGCATTTTCGATGCGTTGGATGCGCAGCTGGCGCCAATCCTCGCGCATATC (double strand) [Bbr_1894 (PTS) promoter],binding result,[1]; label: 5' IRD700,binds
same,binding signal,[2]; label: 5' IRD700,< 15 % bound
GGCACCAATAACAGCAAGCTTCGTGGGCTTAACGGTAGTTTCCGCCATGATGGATAAACCTCTCTTCAAAGGCGGTCTGCTGATGAATGGCAGGCCTTGTAACTAACGGTTTCACTTTATAAACCCGCTAAGACGTTTCGCGGGCCACAATGCATATCCAATGATGCCATAACCCTAATGTTTTCAGCAGTTGTTAGCGCTCACAGCCATTATGTGATTTTCGTCACGTTATTTATGCGATTGATTGCTCCATGATTTGCGCAGCCAAGTGCGAATCGACATCC (double strand) [ldh2 promoter],binding result,[1]; [3],binds
same,binding result,[2]; [3],binds
GAACTTCAGGCCGCCAGCGATCAAACCGATAGTACGTGAACGGCGGGAGGCCAAGGCACGAGCGGAATTGGAGGGACGATATCCAAGCTCGTCAATGGCGGCCTGCACACGGGCACGCGTGGCGTCAGACACATCCGGCGAATCGTTGATCACACGGGATACGGTCTGGTGACTGACCCCGGCGAGTTTGGCCACCTCGAACATGGATGGGCGCTTGTTTGGTTTGCGGCTGGTCACCATACTGCCCGAACCTCCCCGCTGGCGGCCGAATTCCGTGCCCGGCCGTGCTGCACCTTATTAATTATTGACTTTAGCGCGCCTGAGGCGATTTCGCGTGAGCGCTCACATTGTCGTGTCGCGAATCGGTCTGGAGCCACTGCGCTGCATGGCAATCCGCAACATCAGGTCAAATGCCAGGAAGTGCG (double strand) [araQ promoter],binding result,[1]; [4],binds
same,binding result,[2]; [4],binds

# Source: article PMC6882875
